The text below walks through data of patent publication US20200289563A1 (WUXI BIOLOGICS IRELAND, published 2020).

No constants are given. Whether binding was seen depends on the method and setting. Some binding calls cover weakened binding; strength is not graded here.

In test [1] the target is cynomolgus monkey CD19 (cynomolgus monkey). The test can be described thus: flow cytometry on cynomolgus CD19 transfected CHO-K1 cells.
Test [2] has the same target. Nature of the test: FACS on cynomolgus monkey CD19 transfected CHO-K1 cells (WBP701.CHO-K1.cynoPro1).
In test [3] the target is T1, human CD19 (human, UniProt P15391 20-556).
T1 sequence (looked up): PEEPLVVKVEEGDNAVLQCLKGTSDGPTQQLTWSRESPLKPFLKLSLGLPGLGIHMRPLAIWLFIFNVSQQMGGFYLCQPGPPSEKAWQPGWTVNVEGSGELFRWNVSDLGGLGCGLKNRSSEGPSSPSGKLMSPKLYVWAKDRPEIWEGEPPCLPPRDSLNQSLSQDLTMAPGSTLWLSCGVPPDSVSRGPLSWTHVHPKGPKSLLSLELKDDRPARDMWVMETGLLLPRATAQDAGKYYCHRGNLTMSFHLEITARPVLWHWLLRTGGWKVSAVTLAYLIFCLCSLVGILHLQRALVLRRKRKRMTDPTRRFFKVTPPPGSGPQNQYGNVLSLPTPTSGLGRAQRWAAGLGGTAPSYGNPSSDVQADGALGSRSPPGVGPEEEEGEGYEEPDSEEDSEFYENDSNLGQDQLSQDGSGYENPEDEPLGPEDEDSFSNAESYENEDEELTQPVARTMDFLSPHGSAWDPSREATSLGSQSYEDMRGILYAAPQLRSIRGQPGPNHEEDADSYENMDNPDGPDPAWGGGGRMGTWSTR
The test can be described thus: flow cytometry on Ramos cells. Here is the method: The Ramos cells were plated in 96-well U-bottom plates (BD) at a density of 1×10⁵ cells/well. The purified antibody were serially diluted in the staining buffer (1×PBS/1% BSA) and incubated with cells for 1 hr at 4° C. The cells were then washed twice with staining buffer (BSA/1×PBS). […] The cells were then washed twice and re-suspended in 100 μL staining buffer. The fluorescence intensity was measured by flow cytometry (BD Canto II) and analyzed by FlowJo.
Binding activity of the selected subclones were tested on Ramos cell by flow cytometry (FIG. 4).

Test [4] has as its target T1, human CD19. Nature of the test: FACS on Ramos cells (human CD19).
Test [5] concerns the target T1, human CD19. The test can be described thus: FACS of hybridoma subclones on CD19 cell line.
The target of test [6] is T1, human CD19. The test can be described thus: flow cytometry on CD19 transfected CHO-K1 cells.

B1: WBP7011-4.87.6 (antibody, V domains shown)
VH: QVQLQQSGAELVRPGSSVKISCKASGYAFSTYWMNWVKQRPGQGLEWIGQIYPGDDDTKYNGKFKGKASLTADKSSSTAYMQLISLTSEDSAVYFCARRYFRYDYWYSDVWGAGTTVTVTS
VL: DIQMTQTTSSLSASLGDRVTISCRASQDISNYLNWYQQKPDGTVKLLIYYTSRLHSGVPARFSGSGSGTDYSLTISNLEQEDIATYFCHQGNTLPLTFGAGTKLELK
For the molecule B1, the binding result in test [1] and in test [2] was “binds” each time.

B2: WBP7011-4.100.1 (antibody, V domains shown)
VH: EVQLQQSGPELVKPGASVKMSCKASGYTFTSYVIHWVKQKPGQGLEWIGYINPYNDGAEYTEKFKGKATLTSDKSSSTAYMELSSLTSEDSTVYYCARGPYYYGGSPFDYWGQGTTLTVSS
VL: DAVMTQTPLSLPVSLGDQASISCRSSQSLENSNGNTYLNWYLQKPGQSPQLLIYRVSNRFSGVLDRFSGSGSGTDFTLKISRVEAEDLGVYFCLQVTHVPYTFGGGTKLEIK
notes: also called W7011-4.100.1
Consider B2, for which the binding result in test [1] and in test [2] was “binds” in each case.

B3: WBP7011_4.231.5 (antibody, V domains shown)
VH: EVQLQQSGPELVKPGASVKMSCKASGYTFTSYVMHWVKQKPGQGLEWIGYINPYNDGTQYNEKFKGKATLTSDKSSSTAYMELSSLTSEDSAVYYCARGPYYYSPSPFDYWGQGTTLTVSS
VL: DAVMTQTPLSLPVSLGDQASISCRSSQSLENSNGNTYLNWYLQKPGQSPQLLIYRVSNRFSGVLDRFSGSGSGTDFTLKISRVEAEDLGVYFCLQVTHVPYTFGGGTKLEIK
notes: also called W7011-4.231.5
As to B3, the binding result in test [1] and in test [2] was “binds” throughout.

B4: WBP7011_4.56.1 (antibody, V domains shown)
VH: EVQLQQSGPELVKPGASVKMSCKASGYTFTNYVIHWVKQKPGQGLEWIGYINPYNDGTEYNEKFKGKATLTSDTSSSTAYMALSSLTSEDSAVYYCTRGPYYYGGSPFDYWGQGTTLTVSS
VL: DAVMTQTPLSLPVSLGDQASISCRSSQSLENSNGNTYLNWYLQKPGQSPQLLIYRVSNRFSGVLDRFSGSGSGTDFTLKISRVEAEDLGVYFCLQVTHVPYTFGGGTKLEIK
notes: also called W7011-4.56.1
For B4, the binding entry in test [1] and in test [2] was “binds” throughout.

B5: WBP7011-4.34.11 (antibody, V domains shown)
VH: EVQLQQSGPELVKPGASVKMSCKASGYTFTNYVIHWVKQKPGQGLEWIGYFNPYNDGTEYNEKFKAKATLTSDKSSSTAYMELSSLTSEDSAVYYCAKGPYYYGSSPFDYWGQGTTLTVSS
VL: DAVMTQTPLSLPVSLGDQASISCRSSQSLENSNGNTYLNWYLQKPGQSPQLLIYRVSNRFSGVLDRFSGSGSGTDFTLKISRVEAEDLGVYFCLQVTHVPYTFGGGTKLEIK
B5: the binding entry in test [1] and in test [2] was “binds” throughout.

B6: WBP7011-4.15.10 (antibody, V domains shown)
VH: EVQLQQSGPELVKPGASVKMSCKASGYTFTSYVMHWMKQKPGQGLEWIGYINPYNDGTEYHEKFKGKATLTSDKSSSTAYMELSSLTSEDSAVFYCARGPYYYGGSPFDFWGQGTTLTVSS
VL: DAVMTQTPLSLPVSLGDQASISCRSSQSLENSNGNTYLNWYLQKPGQSPQLLIYRVSNRFSGVLDRFSGSGSGTDFTLKISRVEAEDLGVYFCLQVTHVPYTFGGGTKLEIK
notes: also called W7011-4.15.10
Turning to B6, the binding result in test [1] and in test [2] was “binds” in each case.

B7: WBP7011_4.194.10 (antibody, V domains shown)
VH: EVQLQQSGPELVKPGASVKMSCKASGYTFTSYVMHWVKQKPGQGLEWIGYINPYNDGTKYNEKFKGKATLTSDKSSSTAYMELSSLTSEDSAVYYCARGPYYYGSSPFDYWGQGTTLTVSS
VL: DAVMTQTPLSLPVSLGDQASISCRSSQTLENSNGNTYLNWYLQKPGQSPQLLIYRVSNRFSGVLDRFSGSGSGTDFTLKISRVETEDLGVYFCLQVTHVPYTFGGGTKLEIK
notes: also called W7011-4.194.10
Turning to B7, the binding entry in test [1] and in test [2] was “binds” each time.

B8: WBP7011_4.108.3 (antibody, V domains shown)
VH: EVQLQQSGPELVKPGASVEMSCKASGYTFTSYVIHWLKQKPGQGLEWIGYINPYNDGAEYNEKFKGKATLTSDKSSSTAYMDLNSLTSEDSAVYYCARGPYYYGSSPFDYWGQGTTLTVSS
VL: DAVMTQTPLSLPVSLGDQASISCRSSQSLENSNGNTYLNWYLQKPGQSPQLLIYRVSNRFSGVLDRFSGSGSGTDFTLKISRVEAEDLGVYFCLQVTHVPYTFGGGTKLEIK
notes: also called W7011-4.108.3
B8: the binding result in test [1] and in test [2] was “binds” each time.

B9: WBP7011-4.106.3 (antibody, V domains shown)
VH: EVQLQQSGPELVKPGASVKMSCKASGYTFSSYVIHWVKQKPGQGLEWIGYINPYNDGAEYAEKFKGKATLTSDKSSSSAYMELGSLTSEDSAVYYCARGPYYYGGSPFDYWGQGTTLTVSS
VL: DAVMTQTPLSLPVSLGDQASISCRSSQSLENSNGNTYLNWYLQKPGQSPQLLIYRVSNRFSGVLDRFSGSGSGTDFTLKISRVEAEDLGVYFCLQVTHVPYTFGGGTKLEIK
notes: also called W7011-4.106.3
Take B9: the binding result in test [1] and in test [2] was “binds” each time.

B10: WBP7011_4.202.9 (antibody, mouse IgG2a, V domains shown)
VH: EIQLQQSGPELVKPGASVKVSCKASGYAFTSYNMYWVKQSHGKSLEWIGYIDPYNGDTTYNQKFKGKATLTVDKSSSTAYMHLNSLTSEDSAVYYCLTTAYAMDYWGQGTSVTVSS
VL: QIVLTQSPAIMSASLGEEITLTCSASSTVNYMHWYQQKSGTSPKLLIYSTSNLASGVPSRFSGSGSGTFYSLTIRSVEAEDAADYYCHQWSSYPYTFGGGTKLEIK
notes: also called W7011-4.202.9
On to B10, for which the binding result (with human CD19 [3]; with human CD19 [4]; with human CD19 [5]; with human CD19 [6]; in test [1]; in test [2]) was “binds” each time.

B11: WBP7011_4.155.8 (antibody, V domains shown)
VH: EIQLQQSGPELVKPGASVKVSCKASGYAFTSYNMYWVKQSHGKSLEWIGYIDPYNGDTTYNQKFKGKATLTVDKSSSTAYMHLNSLTSEDSAVYYCLTTAYAMDYWGQGTSVTVSS
VL: QIVLTQSPAIMSASLGEEITLTCSASSTVNYMHWYQQKSGTSPKLLIYSTSNLASGVPSRFSGSGSGTFYSLTIRSVEAEDAADYYCHQWSSYPYTFGGGTKLEIK
B11: the binding entry in test [1] and in test [2] was “binds” in each case.

B12: WBP7011_4.225.7 (antibody, mouse IgG2a, V domains shown)
VH: EIQLQQSGPELVKPGASVKVSCKASGYAFTSYNMYWVKQSHGKSLEWIGYIDPYNGDTTYNQKFKGKATLTVDKSSSTAYMHLNSLTSEDSAVYYCLTTAYAMDYWGQGTSVTVSS
VL: QIVLTQSPAIMSASLGEEITLTCSASSTVNYMHWYQQKSGTSPKLLIYSTSNLASGVPSRFSGSGSGTFYSLTIRSVEAEDAADYYCHQWSSYPYTFGGGTKLEIK
notes: also called W7011-4.225.7
Turning to B12, the binding result (with human CD19 [3]; with human CD19 [4]; with human CD19 [5]; with human CD19 [6]; in test [1]; in test [2]) was “binds” each time.
